From paper PMC12130737, “Taurine Alleviates Pancreatic β‐Cell Senescence by Inhibition of p53 Pathway” (Journal of Diabetes, 2025)
These are yes or no findings as the source states them, for the method shown. In cells and extracts the contact can be indirect. Some results given as binding are weak or reduced against the parent protein; the word gives no strength.

Chains of the proteins cited; added tags and fusions are not shown.
UniProt P02340: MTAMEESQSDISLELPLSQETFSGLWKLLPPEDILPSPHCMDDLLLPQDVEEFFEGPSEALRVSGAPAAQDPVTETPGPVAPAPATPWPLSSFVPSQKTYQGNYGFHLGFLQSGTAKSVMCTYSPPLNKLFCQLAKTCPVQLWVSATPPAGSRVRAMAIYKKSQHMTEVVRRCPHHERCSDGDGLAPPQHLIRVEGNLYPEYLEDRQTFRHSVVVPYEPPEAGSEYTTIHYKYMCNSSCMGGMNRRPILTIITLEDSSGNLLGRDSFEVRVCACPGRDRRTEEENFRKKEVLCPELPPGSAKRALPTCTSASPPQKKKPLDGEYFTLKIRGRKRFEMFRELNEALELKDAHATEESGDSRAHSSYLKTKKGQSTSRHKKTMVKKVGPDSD

Target: T1, CDKN2AIP (mouse (endogenous in MIN6)) (UniProt Q8BI72)
T1 sequence: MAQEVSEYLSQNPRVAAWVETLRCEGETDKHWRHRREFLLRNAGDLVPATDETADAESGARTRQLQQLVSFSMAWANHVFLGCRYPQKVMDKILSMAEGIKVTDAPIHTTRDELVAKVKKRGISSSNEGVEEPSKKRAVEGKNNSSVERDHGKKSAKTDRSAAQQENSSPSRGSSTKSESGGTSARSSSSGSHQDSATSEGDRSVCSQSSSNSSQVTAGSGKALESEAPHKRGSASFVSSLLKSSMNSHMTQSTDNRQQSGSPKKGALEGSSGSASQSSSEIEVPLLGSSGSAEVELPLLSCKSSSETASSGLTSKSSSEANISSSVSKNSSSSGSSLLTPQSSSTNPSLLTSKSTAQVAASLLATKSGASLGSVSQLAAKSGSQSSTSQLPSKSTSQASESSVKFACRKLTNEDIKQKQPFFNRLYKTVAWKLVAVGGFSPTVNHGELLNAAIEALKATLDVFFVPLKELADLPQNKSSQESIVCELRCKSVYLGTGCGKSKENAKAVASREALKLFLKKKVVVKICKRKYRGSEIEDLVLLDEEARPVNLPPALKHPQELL
Test: co-IP; MIN6 cells treated with taurine (100 uM, 24 h) or vehicle; lysate (50 mM Tris-HCl pH 7.4, 150 mM NaCl, 1% NP-40, 0.5% sodium deoxycholate, 0.1% SDS) incubated with anti-CDKN2AIP antibody or control IgG overnight at 4°C, protein A/G agarose beads, immunoblot

Substance: p53 (from UniProt P02340 1-390)
- binding: binds
